Assay results from paper PMC13178980.
No constants are given. Whether binding was seen depends on the method and setting. Binding seen in cells or lysates may run through a third protein. Some entries that bind do so weakly or less than the wild type.

By UniProt entry, the sequences of proteins in these tests, tags left out. Where a name states a change or a piece, a line headed by the entry shows the natural chain unless it says otherwise. Chains listed by the source or under a name are the forms on record and can include a tag or linker. Residues count along the entry.
UniProt O15047: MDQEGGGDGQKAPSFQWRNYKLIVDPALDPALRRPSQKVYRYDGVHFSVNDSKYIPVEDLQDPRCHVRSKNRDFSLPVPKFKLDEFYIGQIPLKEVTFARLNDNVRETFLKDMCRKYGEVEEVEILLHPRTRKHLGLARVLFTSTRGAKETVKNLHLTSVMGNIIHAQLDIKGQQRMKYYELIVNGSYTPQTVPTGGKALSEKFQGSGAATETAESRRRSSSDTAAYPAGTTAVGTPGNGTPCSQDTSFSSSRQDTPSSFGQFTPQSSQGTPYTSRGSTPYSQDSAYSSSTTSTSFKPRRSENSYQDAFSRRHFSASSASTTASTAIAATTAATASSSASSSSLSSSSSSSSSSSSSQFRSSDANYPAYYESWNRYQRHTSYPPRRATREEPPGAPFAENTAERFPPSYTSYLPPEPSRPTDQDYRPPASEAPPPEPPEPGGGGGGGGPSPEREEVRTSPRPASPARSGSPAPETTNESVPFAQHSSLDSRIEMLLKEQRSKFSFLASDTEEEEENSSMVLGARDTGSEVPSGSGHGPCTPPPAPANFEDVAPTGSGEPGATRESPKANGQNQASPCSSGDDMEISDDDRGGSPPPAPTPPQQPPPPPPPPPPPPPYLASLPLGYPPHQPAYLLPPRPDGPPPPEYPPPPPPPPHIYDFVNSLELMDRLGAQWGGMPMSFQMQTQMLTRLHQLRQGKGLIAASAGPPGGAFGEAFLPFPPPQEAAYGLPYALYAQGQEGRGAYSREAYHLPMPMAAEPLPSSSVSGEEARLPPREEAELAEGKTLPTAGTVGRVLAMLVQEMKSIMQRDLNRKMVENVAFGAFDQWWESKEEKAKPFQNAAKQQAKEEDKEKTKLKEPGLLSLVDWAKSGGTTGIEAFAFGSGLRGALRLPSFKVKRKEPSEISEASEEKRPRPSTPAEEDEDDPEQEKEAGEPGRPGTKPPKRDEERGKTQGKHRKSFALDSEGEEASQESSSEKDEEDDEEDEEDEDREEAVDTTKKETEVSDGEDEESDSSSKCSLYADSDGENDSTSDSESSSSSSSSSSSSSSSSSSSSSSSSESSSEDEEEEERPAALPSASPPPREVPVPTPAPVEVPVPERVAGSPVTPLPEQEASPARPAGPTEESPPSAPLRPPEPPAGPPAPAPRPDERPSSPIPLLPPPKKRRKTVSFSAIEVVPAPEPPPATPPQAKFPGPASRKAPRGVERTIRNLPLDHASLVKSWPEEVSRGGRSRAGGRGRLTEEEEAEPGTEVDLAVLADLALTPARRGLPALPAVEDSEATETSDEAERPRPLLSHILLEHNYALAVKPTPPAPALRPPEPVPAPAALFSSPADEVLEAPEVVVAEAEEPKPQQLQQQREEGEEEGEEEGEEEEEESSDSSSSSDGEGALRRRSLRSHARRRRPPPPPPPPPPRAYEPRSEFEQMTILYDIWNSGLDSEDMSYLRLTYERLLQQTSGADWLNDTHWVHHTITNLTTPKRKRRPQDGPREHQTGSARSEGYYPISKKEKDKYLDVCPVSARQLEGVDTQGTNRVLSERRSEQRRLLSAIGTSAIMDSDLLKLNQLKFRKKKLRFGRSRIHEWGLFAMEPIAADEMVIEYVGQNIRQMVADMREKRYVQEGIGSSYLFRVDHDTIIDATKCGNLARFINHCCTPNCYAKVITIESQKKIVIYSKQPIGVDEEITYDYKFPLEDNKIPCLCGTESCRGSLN
SFB-tagged RRM of KMT2F (74-172): residues 74-172 of O15047
UniProt Q03164: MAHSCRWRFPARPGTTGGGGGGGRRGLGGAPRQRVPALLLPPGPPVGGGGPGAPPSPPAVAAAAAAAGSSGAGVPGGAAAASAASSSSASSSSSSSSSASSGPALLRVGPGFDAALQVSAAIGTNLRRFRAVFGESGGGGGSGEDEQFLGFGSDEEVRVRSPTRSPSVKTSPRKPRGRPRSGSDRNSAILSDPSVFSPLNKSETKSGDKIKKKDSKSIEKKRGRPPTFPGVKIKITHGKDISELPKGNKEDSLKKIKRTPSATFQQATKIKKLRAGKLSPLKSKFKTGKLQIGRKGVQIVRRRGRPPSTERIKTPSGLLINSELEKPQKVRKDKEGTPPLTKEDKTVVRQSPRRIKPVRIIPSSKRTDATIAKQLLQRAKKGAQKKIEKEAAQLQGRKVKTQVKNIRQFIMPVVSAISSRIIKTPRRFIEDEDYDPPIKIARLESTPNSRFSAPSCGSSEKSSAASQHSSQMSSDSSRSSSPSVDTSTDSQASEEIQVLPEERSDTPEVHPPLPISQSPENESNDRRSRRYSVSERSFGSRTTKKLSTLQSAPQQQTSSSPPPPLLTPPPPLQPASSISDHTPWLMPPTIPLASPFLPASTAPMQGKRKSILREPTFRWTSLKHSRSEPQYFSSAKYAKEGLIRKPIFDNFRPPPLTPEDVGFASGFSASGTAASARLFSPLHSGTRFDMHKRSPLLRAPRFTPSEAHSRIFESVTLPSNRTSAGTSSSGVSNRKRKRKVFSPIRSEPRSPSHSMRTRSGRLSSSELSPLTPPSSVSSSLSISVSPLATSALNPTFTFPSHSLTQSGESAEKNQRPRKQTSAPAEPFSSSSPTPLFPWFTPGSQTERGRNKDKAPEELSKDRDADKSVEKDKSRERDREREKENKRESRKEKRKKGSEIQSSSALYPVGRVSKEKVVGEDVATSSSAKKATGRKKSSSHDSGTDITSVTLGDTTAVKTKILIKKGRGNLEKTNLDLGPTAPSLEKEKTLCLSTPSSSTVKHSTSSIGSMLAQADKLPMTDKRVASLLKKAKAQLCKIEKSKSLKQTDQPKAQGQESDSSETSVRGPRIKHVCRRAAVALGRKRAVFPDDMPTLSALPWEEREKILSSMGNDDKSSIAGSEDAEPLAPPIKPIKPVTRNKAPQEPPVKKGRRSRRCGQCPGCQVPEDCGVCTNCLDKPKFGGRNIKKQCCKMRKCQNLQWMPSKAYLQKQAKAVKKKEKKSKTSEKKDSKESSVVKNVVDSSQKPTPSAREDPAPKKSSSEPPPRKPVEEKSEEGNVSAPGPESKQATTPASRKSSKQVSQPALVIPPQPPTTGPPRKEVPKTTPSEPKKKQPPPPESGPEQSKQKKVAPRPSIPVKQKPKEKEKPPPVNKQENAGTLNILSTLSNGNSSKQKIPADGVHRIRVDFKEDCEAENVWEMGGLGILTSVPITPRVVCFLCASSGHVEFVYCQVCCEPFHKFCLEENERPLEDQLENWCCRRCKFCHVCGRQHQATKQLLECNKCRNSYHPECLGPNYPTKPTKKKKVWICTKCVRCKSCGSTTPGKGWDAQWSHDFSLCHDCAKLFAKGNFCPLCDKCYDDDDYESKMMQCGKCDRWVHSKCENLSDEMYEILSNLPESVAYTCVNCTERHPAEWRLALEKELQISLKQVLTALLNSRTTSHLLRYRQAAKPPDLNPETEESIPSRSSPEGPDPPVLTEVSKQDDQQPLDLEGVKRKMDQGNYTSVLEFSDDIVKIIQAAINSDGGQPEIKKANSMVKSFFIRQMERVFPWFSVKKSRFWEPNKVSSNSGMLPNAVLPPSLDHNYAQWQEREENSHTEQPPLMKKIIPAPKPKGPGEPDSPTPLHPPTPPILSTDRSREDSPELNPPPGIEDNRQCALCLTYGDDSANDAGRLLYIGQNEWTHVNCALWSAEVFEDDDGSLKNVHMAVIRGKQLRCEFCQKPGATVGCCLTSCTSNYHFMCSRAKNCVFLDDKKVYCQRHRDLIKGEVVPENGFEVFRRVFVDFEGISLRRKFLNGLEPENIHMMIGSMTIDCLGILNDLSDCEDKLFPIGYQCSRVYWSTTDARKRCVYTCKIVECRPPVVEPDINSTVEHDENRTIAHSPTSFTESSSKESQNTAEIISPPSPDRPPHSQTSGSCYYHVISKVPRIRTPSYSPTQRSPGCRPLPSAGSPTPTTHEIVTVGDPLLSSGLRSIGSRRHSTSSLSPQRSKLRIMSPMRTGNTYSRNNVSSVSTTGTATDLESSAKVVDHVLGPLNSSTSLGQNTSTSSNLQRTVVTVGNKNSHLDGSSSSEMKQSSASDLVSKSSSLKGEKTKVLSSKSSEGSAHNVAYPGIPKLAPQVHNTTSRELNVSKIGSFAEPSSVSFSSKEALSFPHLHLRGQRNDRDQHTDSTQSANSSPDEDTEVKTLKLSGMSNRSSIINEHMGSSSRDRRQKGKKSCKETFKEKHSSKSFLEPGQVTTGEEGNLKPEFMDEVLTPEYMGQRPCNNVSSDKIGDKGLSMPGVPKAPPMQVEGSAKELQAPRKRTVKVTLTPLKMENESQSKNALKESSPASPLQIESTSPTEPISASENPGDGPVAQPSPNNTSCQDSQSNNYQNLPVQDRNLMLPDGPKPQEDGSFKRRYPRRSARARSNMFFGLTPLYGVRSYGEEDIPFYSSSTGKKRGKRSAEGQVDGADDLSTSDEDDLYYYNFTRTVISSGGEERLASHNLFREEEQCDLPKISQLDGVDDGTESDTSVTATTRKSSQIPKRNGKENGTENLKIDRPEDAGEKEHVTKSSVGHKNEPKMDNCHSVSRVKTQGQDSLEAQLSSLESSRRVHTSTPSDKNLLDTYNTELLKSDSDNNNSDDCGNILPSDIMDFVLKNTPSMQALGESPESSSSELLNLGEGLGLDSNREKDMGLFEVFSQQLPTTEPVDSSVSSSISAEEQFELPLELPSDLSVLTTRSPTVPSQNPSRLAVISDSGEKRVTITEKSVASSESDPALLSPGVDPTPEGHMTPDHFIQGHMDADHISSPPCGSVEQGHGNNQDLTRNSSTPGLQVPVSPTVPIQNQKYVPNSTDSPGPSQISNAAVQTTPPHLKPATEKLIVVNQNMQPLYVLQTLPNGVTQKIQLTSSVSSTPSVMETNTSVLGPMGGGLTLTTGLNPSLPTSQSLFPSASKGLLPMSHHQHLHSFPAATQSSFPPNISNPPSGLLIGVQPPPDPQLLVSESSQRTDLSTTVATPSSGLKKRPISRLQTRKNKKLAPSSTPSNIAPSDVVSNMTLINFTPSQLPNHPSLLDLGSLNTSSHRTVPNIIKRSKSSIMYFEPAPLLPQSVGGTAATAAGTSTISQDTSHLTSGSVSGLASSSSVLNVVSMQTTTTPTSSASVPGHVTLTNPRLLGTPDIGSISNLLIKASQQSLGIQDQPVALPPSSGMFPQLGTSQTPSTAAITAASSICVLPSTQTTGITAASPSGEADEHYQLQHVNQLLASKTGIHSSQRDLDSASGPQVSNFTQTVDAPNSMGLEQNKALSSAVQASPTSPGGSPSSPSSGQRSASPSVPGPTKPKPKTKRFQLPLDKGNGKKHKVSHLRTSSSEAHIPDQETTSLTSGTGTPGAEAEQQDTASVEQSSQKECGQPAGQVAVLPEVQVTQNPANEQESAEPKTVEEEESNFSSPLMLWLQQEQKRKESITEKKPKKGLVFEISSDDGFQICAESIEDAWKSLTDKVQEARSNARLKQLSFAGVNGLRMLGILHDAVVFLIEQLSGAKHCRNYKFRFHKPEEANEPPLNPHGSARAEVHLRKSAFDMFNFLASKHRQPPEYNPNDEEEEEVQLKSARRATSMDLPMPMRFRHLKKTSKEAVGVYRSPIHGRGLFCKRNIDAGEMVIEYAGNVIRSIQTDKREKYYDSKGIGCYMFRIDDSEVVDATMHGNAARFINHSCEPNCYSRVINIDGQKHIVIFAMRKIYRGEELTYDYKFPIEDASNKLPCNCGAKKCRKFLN
UniProt Q9NYV6: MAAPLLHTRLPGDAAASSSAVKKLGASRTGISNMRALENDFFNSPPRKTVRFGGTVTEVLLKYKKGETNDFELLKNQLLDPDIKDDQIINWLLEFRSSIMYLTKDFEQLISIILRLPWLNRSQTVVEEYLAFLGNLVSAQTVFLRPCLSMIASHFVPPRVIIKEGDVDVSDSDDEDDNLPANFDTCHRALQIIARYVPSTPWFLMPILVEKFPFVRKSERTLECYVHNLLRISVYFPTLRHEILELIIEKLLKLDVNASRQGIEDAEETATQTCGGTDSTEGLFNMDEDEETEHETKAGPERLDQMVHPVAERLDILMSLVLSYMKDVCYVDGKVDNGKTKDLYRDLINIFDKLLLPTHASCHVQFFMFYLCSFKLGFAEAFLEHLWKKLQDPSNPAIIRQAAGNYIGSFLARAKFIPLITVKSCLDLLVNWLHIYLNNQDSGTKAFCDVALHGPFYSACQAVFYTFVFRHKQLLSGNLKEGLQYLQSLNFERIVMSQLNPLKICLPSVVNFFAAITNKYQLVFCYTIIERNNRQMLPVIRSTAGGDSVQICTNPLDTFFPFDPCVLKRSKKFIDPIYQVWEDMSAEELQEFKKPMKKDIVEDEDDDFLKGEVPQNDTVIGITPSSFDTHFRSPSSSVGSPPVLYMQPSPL

Tests used:
[1] = target: SFB-tagged full-length KMT2F (UniProt O15047); experiment: pull-down; SFB-tagged proteins overexpressed in cells, lysate incubated with S protein beads overnight, washed with IP wash buffer; immunoblot for endogenous RPA194, RRN3 and RPA-49
SFB-tagged KMT2F N1646A = SFB-tagged KMT2F N1646A (UniProt O15047); experiment: as above
[2] = target: SFB-tagged RRM of KMT2F (74-172) (UniProt O15047); experiment: as above
[3] = target: KMT2A (human (endogenous in HeLa)) (UniProt Q03164); experiment: co-IP; endogenous immunoprecipitation from HeLa nuclear extract with antibodies against KMT2A or KMT2F, Protein A beads, IgG as mock; immunoblot
[4] = target: KMT2F (human (endogenous in HeLa)) (UniProt O15047); experiment: as above
GST-RPA34 = GST-RPA34 (UniProt O15446); experiment: pull-down; purified bead-bound GST-tagged proteins incubated with HeLa or HeLa spinner whole-cell or nuclear extracts for 2-3 hours, washed with IP wash buffer; blots with anti-KMT2A and anti-KMT2F; only the target purified
GST-RPA49 = GST-RPA49 (UniProt Q9GZS1); experiment: as above

Measured: binding

RPA49 (from UniProt Q9GZS1 1-419)
binds: [1] | SFB-tagged KMT2F N1646A | [2]

RPA194 (from UniProt O95602 1-1720)
not listed: GST-RPA34 | GST-RPA49
binds: all other assays above

KMT2A (from UniProt Q03164 1-3969)
binds: GST-RPA34 | GST-RPA49

KMT2F (from UniProt O15047 1-1707)
binds: GST-RPA34 | GST-RPA49

RRN3 (from UniProt Q9NYV6 1-651)
not listed: GST-RPA34 | GST-RPA49
binds: all other assays above
